Source: PMC8036411
Results are given in words; binding and its absence hold for the method and conditions named.

Molecular target: holo-Acinetobacter baumannii acyl carrier protein (Acinetobacter baumannii) (UniProt B7GYR8)
Assay: NMR spin relaxation (R1, R2, hNOE); backbone dynamics of AbACP, 25 °C, 700 MHz (R2 also at 900 MHz); 0.5 mM protein in 25 mM MES, 5 mM CaCl2, 5 mM dithiothreitol, pH 6.1; average R2/R1 ratio; both purified

B1: holo-Acinetobacter baumannii acyl carrier protein (protein, UniProt B7GYR8 1-78)
chain: MSDIEQRVKQAVAEQLGLKAEEIKNEASFMDDLGADSLDLVELVMSFENDFDITIPDEDSNEITTVQSAIDYVTKKLG
modifications: 4'-phosphopantetheine prosthetic group attached to S37; 15N- and 13C-labelled
Question: Which binding does the source give for B1 here?
Answer: no binding (tested: 0.5 mM)
